Measurements as given in PubChem BioAssay AID1487 (National Center for Advancing Translational Sciences (NCATS), 2009).
Some of the results follow. Shown are side measurements of this screen, not its main read-out; they come without a call. The list favours compounds with an active or inconclusive main result. Potencies come from curve fits of mixed quality, noted in brackets.

Test: qHTS Assay for Modulators of Lamin A Splicing
Conditions: HeLa LMNA splicing GFP/RFP minigene ratio, 48 h
Summary of the method: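 S3 HeLa cells stably expressing lamin A-EGFP splicing minigene plus DsRed2, 600 cells/well, 48 h compound exposure at 37C. Laser-scanning cytometry; analysed as GFP (500-530 nm)/RFP (575-640 nm) total intensity ratio; 0.5% DMSO vehicle.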

[1] = measured here: RFP viability control channel
[2] = measured here: GFP splicing reporter channel

With `O=C(O)c1cc(O)c2c(c1)C(=O)c1cccc(O)c1C2=O` the AC50 [1] was 12.6 µM [rising, single point].
For `O=C1C=CC(=O)N1c1ccc(OC(F)F)cc1`, the AC50 [2] was 35.5 µM [rising, single point] and the AC50 [1] was 31.6 µM [rising, single point].
For `O=C(CSc1nc2ccccc2nc1Cc1ccc(Cl)cc1)N1CCN(c2ccccc2F)CC1`, the AC50 [1] was 7.08 µM [falling, full curve, poor fit].
For `Cc1ccccc1-n1nnc2c(=O)oc3ccccc3c21`, the AC50 [1] was 10 µM [rising, partial curve, poor fit].
In the case of `N#CC(C#N)=C1C=CC=CN1/C(=C\c1ccco1)C(=O)c1ccc(Br)cc1`, the AC50 [2] is reported as 3.98 µM [falling, full curve] and the AC50 [1] is reported as 6.31 µM [falling, full curve].
For `COc1ccc(C(=O)NCCc2nnc(SCC(=O)Nc3ccc(Br)cc3)n2C)cc1`, the AC50 [2] was 12.6 µM [rising, single point].
With `CCOc1ccc(-c2cc(C(=O)N3CCN(c4cccc(C)c4)C(C)C3)c3ccccc3n2)cc1` (stereo unspecified) the AC50 [1] was 2.82 µM [rising, full curve, poor fit].
In the case of `Cc1ccc(C)c(N2CCN(C(=O)CCCCCn3c(=O)[nH]c4ccccc4c3=O)CC2)c1`, the AC50 [2] is reported as 22.4 µM [falling, partial curve] and the AC50 [1] is reported as 22.4 µM [falling, partial curve, poor fit].
In the case of `O=C(CN(c1cccc(Cl)c1)S(=O)(=O)c1ccc(Cl)cc1)N1CCc2ccccc2C1`, the AC50 [2] is reported as 12.6 µM [rising, partial curve, poor fit] and the AC50 [1] is reported as 22.4 µM [rising, single point].
For `CCCc1cc(C(=O)Nc2sc(C)c(CC)c2C#N)no1`, the AC50 [1] was 35.5 µM [rising, partial curve, poor fit].
In the case of `CC1CC(C)CN(C(=O)CSc2nc(Cc3cccs3)nc3ccccc23)C1` (stereo unspecified), the AC50 [1] is reported as 35.5 µM [rising, single point].
In the case of `Cc1ccc(S(=O)(=O)NCCCOC(=O)Nc2ccncc2)cc1`, the AC50 [2] is reported as 14.1 µM [rising, single point] and the AC50 [1] is reported as 20 µM [rising, single point].
In the case of `CCc1cccc(NC(c2nnc(-c3ccccc3)o2)c2ccc(F)cc2Cl)c1` (stereo unspecified), the AC50 [1] is reported as 35.5 µM [rising, single point].
For `CC1CCCCC1NC(=O)CSc1nnc(COc2ccccc2Cl)o1` (stereo unspecified), the AC50 [2] was 20 µM [rising, single point] and the AC50 [1] was 14.1 µM [rising, single point].
In the case of `COc1ccccc1-n1cnnc1SCC(=O)Nc1cccnc1Cl`, the AC50 [1] is reported as 0.00282 µM [falling, full curve].
For `COc1ccc(OC)c(N/C(=N/C(=S)Nc2ccccc2)Nc2nc(C)cc(C)n2)c1`, the AC50 [2] was 0.0794 µM [falling, full curve] and the AC50 [1] was 0.447 µM [falling, partial curve, poor fit].
In the case of `FC(F)(F)c1cccc(NC(=S)NC2CCCC2)c1`, the AC50 [1] is reported as 20 µM [rising, single point].
In the case of `C=CCc1c(C)nc(-c2ccccc2)nc1Nc1ccccc1O`, the AC50 [2] is reported as 31.6 µM [rising, partial curve].
With `FC(F)Sc1ccc(-n2cc(-c3ccc(Cl)cc3)[n+]3c2CCC3)cc1` the AC50 [1] was 35.5 µM [rising, single point].
With `COCCCn1nnnc1SCC(=O)Nc1ccc2c(c1)OCCO2` the AC50 [1] was 0.0562 µM [falling, full curve].
With `CCOCCCNC(=O)C1c2ccccc2C(=O)N2CCc3ccccc3C12` (stereo unspecified) the AC50 [1] was 35.5 µM [rising, single point].
For `CCCCC(=O)O[C@H]1CC[C@H]2[C@@H]3CCc4cc(O)ccc4[C@H]3CC[C@]12C`, the AC50 [2] was 1.58 µM [falling, full curve, poor fit] and the AC50 [1] was 5.62 µM [falling, partial curve].
For `COC(=O)c1cc(CNC(=O)c2ccccc2Cl)ccc1OC`, the AC50 [2] was 0.0562 µM [falling, full curve] and the AC50 [1] was 0.0501 µM [falling, full curve].
With `CCN(CC(=O)Nc1ccc(OC)c(OC)c1)S(=O)(=O)c1ccc(C)cc1` the AC50 [1] was 22.4 µM [rising, single point].
With `CCCCOC(=O)c1ccc(OC(=O)c2sc3ncn(Cc4ccccc4Cl)c(=O)c3c2C)cc1` the AC50 [1] was 0.112 µM [falling, partial curve, poor fit].
With `Cc1cccc(NC(=O)CNC(=O)COc2ccc(C(=O)c3ccc(F)cc3)cc2)c1C` the AC50 [2] was 3.55 µM [rising, single point] and the AC50 [1] was 3.98 µM [rising, single point].
In the case of `CC(/C=C1\SC(=O)N(CC(=O)Nc2ccc(O)cc2)C1=O)=C\c1ccccc1`, the AC50 [1] is reported as 35.5 µM [rising, single point].
In the case of `COc1cccc(CNC(=O)Cc2csc3nc(-c4ccccc4)cn23)c1`, the AC50 [2] is reported as 35.5 µM [falling, partial curve, poor fit].
In the case of `CCOc1ccc(CNCCCSc2nnnn2C)cc1OC`, the AC50 [1] is reported as 0.02 µM [falling, full curve, poor fit].
With `Cc1ccc(-c2csc3nnc(SCC(=O)Nc4nsc(-c5ccccc5)n4)n23)cc1` the AC50 [2] was 8.91 µM [rising, partial curve, poor fit] and the AC50 [1] was 15.8 µM [rising, single point].
For `CCOC(=O)COc1ccc(/C=C/[N+](=O)[O-])c(OCC(=O)OCC)c1`, the AC50 [2] was 35.5 µM [falling, single point] and the AC50 [1] was 31.6 µM [falling, single point].
With `CCC(C)(C)C1CCc2nc3ccccc3c(C(=O)OC(C)C(=O)Nc3c(C)n(C)n(-c4ccccc4)c3=O)c2C1` (stereo unspecified) the AC50 [1] was 0.1 µM [rising, full curve, poor fit].
For `O=c1c2ccccc2nc(-c2cccs2)n1-c1cccc2ccccc12`, the AC50 [2] was 14.1 µM [rising, single point] and the AC50 [1] was 20 µM [rising, single point].
For `O=C(CNc1ccc(F)cc1)N/N=C/C1CC=CCC1` (stereo unspecified), the AC50 [1] was 0.0562 µM [falling, full curve, poor fit].
For `CC(=O)Nc1cc2ccccc2oc1=O`, the AC50 [2] was 12.6 µM [falling, single point] and the AC50 [1] was 12.6 µM [falling, single point].
With `COc1ccc(/C=N/NC(=O)c2nc(-c3ccccc3)n(-c3ccccc3)n2)cc1OC` the AC50 [1] was 0.158 µM [rising, full curve, poor fit].
In the case of `CCN(CC)S(=O)(=O)c1ccc(O)c(NS(=O)(=O)c2ccccc2F)c1`, the AC50 [1] is reported as 14.1 µM [rising, partial curve, poor fit].
For `CN1CCC2(CC1)N=C(c1ccc(F)cc1)C(=S)N2C(=O)c1ccc(C(C)(C)C)cc1`, the AC50 [1] was 35.5 µM [rising, single point].
With `O=C(Cc1ccc(Cl)cc1)Oc1cccc2cccnc12` the AC50 [1] was 3.16 µM [falling, full curve, poor fit].
For `COc1ccc(NC(=O)C2CCCN(S(=O)(=O)c3c(C)n[nH]c3C)C2)c(OC)c1` (stereo unspecified), the AC50 [2] was 10 µM [rising, single point] and the AC50 [1] was 10 µM [rising, partial curve].
With `COc1ccc(/C=N/Nc2nc(-c3cccc(S(=O)(=O)N4CCCC4)c3)cs2)c(OC)c1` the AC50 [2] was 14.1 µM [rising, single point] and the AC50 [1] was 35.5 µM [rising, partial curve].
With `CC(=O)Nc1c(O)nc(SC/C=C/CSc2nc(O)c(NC(C)=O)c(=O)[nH]2)[nH]c1=O` the AC50 [2] was 0.447 µM [falling, full curve, poor fit].
In the case of `Cc1cc(C)nc(SCc2ccc(C(=O)N/N=C/c3ccccc3C(=O)O)cc2)n1`, the AC50 [2] is reported as 0.158 µM [falling, full curve, poor fit].
For `CCCc1sc(N/N=C/c2ccccn2)nc1-c1ccc(F)cc1`, the AC50 [1] was 22.4 µM [rising, partial curve].
In the case of `COCCNC(=O)c1ccc(-n2c(-c3ccccc3)cc3c2CCC(C)C3)cc1` (stereo unspecified), the AC50 [2] is reported as 8.91 µM [falling, partial curve] and the AC50 [1] is reported as 10 µM [falling, partial curve].
With `CCOC(=O)c1[nH]nc(-c2cc(CC)c(O)cc2O)c1-c1cscn1` the AC50 [2] was 7.94 µM [falling, partial curve, poor fit].
With `COc1ccc(C(=O)N2CCC(C(=O)c3ccc(F)cc3)CC2)cc1` the AC50 [2] was 15.8 µM [rising, single point] and the AC50 [1] was 17.8 µM [rising, partial curve].
For `C=CCn1c(SCC(=O)NCCOC)nnc1-c1cc2c(s1)CCC(CC)C2` (stereo unspecified), the AC50 [1] was 11.2 µM [rising, single point].
In the case of `CCOC(=O)Cn1nnnc1CN1CCN(c2ccc(OC)cc2)CC1`, the AC50 [2] is reported as 0.02 µM [rising, full curve, poor fit].
With `O=C(O)CNC(=O)c1ccccc1Br` the AC50 [2] was 17.8 µM [rising, partial curve] and the AC50 [1] was 3.98 µM [rising, partial curve].
For `COc1ccc(-c2ocnc2C(=O)Nc2ccccc2N2CCCCC2)cc1`, the AC50 [2] was 35.5 µM [rising, single point] and the AC50 [1] was 31.6 µM [rising, single point].
For `COC(=O)Nc1nc2ccc(C(=O)c3ccccc3)cc2[nH]1`, the AC50 [2] was 1 µM [falling, full curve] and the AC50 [1] was 0.891 µM [falling, full curve].
For `Cc1scc(C(=O)NNC(=S)NCC2CCCO2)c1-c1ccccc1` (stereo unspecified), the AC50 [1] was 35.5 µM [rising, single point].
With `CC(C)OC(=O)c1c(NS(=O)(=O)c2ccccc2)sc2c1CCCC2` the AC50 [1] was 12.6 µM [rising, single point].
In the case of `c1ccc(-c2cc3nccc(-c4ccccn4)n3n2)cc1`, the AC50 [1] is reported as 35.5 µM [rising, single point].
